PubChem BioAssay AID1259308 – NCATS – 2017

- Screen: 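Knock-downs that increase output of a recombinant reporter protein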 (primary screen)
- Cells: human HEK293 embryonic kidney cells stably expressing firefly luciferase (HEK-CMV-Luc2-Hygro)
- Reagent: single siRNA against human genes, 0.8 pmol siRNA per well
- Time to read-out: 72 h
- Measurement: 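Reporter luminescence and viable-cell signal on separate replicate plates, given as percent of non-targeting control and median/MAD z-scores, plus per-cell luciferase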
- Reading the numbers: total luciferase, z-score and total luciferase, % of control: higher = more reporter protein produced; luciferase per cell, z-score: higher = more reporter output per viable cell; viable cells, % of control: higher = more viable cells
- Rule for the call: 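Active when the median/MAD z-score for overall luciferase is greater than 3; a gene was taken forward for validation with new siRNAs if at least two of its three siRNAs passed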
- Calls: active = raised luciferase; inactive = no rise
Here is an unselected part of about 59,000 reagents tested. About 1,510 of them (2.6%) were called active. 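Calls use total luciferase alone and ignore viability, so some active siRNAs may act by altering cell number.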 Entries without a mark were called inactive.

| gene | PubChem SID | total luciferase, z-score | total luciferase, % of control | luciferase per cell, z-score | viable cells, % of control |
| --- | --- | --- | --- | --- | --- |
| BAG2 | SID160722434 | 0.654 | 94.9 | 1.93 | 63.7 |
| BAG2 | SID160722435 | -2.67 | 28.8 | -3.85 | 88.6 |
| BAG2 | SID160722436 | 0.24 | 86.7 | 0.087 | 94.7 |
| SSB | SID160717371 | 1.73 | 116 | 1.32 | 91.7 |
| SSB | SID160717372 | -0.379 | 74.3 | -0.403 | 92.4 |
| SSB | SID160717374 | 2.29 | 127 | 1.81 | 88.5 |
| FREY1 | SID160724841 | 1.61 | 114 | 1.21 | 92.6 |
| FREY1 | SID160724842 | 0.767 | 97.1 | 1.05 | 82.3 |
| FREY1 | SID160758056 | 3.26 (active) | 147 | 2.17 | 92.7 |
| DLG2 | SID160754577 | 0.4 | 89.9 | 2.21 | 56.2 |
| DLG2 | SID160754587 | -0.686 | 68.3 | -0.936 | 97.6 |
| DLG2 | SID160754597 | -2.14 | 39.3 | -1.67 | 68.2 |
| ABCB10 | SID160730852 | -0.887 | 64.2 | -0.193 | 75.5 |
| ABCB10 | SID160736313 | 0.0196 | 82.3 | -0.199 | 96.9 |
| ABCB10 | SID160736314 | -0.00249 | 81.8 | -0.277 | 98.4 |
| CFAP184 | SID160762549 | 0.101 | 83.9 | 1.62 | 61.2 |
| CFAP184 | SID160762550 | 0.236 | 86.6 | 0.342 | 88.4 |
| CFAP184 | SID160762552 | -2.66 | 29 | -2.71 | 66.1 |
| LOC440895 | SID160767881 | 0.986 | 101 | 0.901 | 89.4 |
| LOC440895 | SID160767882 | -1.08 | 60.5 | -0.84 | 84.3 |
| LOC440895 | SID160767883 | -1.52 | 51.7 | -0.694 | 69.4 |
| RECK | SID160720024 | 0.267 | 87.2 | -0.681 | 117 |
| RECK | SID160720025 | -0.777 | 66.4 | -0.841 | 92.6 |
| RECK | SID160720026 | 0.907 | 99.9 | 0.317 | 103 |
| CFAP20 | SID160739078 | 1.15 | 105 | 1.15 | 86.6 |
| CFAP20 | SID160739081 | 0.86 | 99 | 0.233 | 104 |
| CFAP20 | SID160739082 | 0.167 | 85.2 | -0.499 | 109 |
| RXRA | SID160716255 | -0.0937 | 80 | 0.455 | 79.3 |
| RXRA | SID160716256 | -1.14 | 59.1 | -1.17 | 90 |
| RXRA | SID160716257 | 0.898 | 99.7 | 1.53 | 74.6 |
| ZNF821 | SID160743803 | 0.84 | 98.6 | 0.666 | 92.5 |
| ZNF821 | SID160743804 | -0.652 | 68.9 | -0.537 | 88.7 |
| ZNF821 | SID160743805 | 0.674 | 95.3 | 0.266 | 99.3 |
| MMP23B | SID160720202 | 1.67 | 115 | 1.88 | 78.4 |
| MMP23B | SID160720203 | -0.558 | 70.8 | -1.27 | 110 |
| MMP23B | SID160724176 | 0.733 | 96.5 | 0.747 | 88.5 |
| ZNF268 | SID160729238 | -0.576 | 70.4 | 0.224 | 74.2 |
| ZNF268 | SID160729239 | 0.149 | 84.9 | 0.107 | 92.2 |
| ZNF268 | SID160729240 | 1.85 | 119 | 1.28 | 94.6 |
| PHYKPL | SID160753113 | -0.172 | 78.5 | -0.519 | 101 |
| PHYKPL | SID160753115 | 0.698 | 95.8 | 0.418 | 95.9 |
| PHYKPL | SID160753116 | 0.32 | 88.2 | 1.08 | 74.1 |
| TADA1 | SID160755513 | 0.654 | 94.9 | 0.198 | 101 |
| TADA1 | SID160755514 | 1.33 | 108 | 1.18 | 88.7 |
| TADA1 | SID160755517 | 0.764 | 97.1 | 1.58 | 71.5 |
| ZBTB41 | SID160765223 | 0.518 | 92.2 | -0.0947 | 106 |
| ZBTB41 | SID160765224 | 3.47 (active) | 151 | 2.57 | 85.8 |
| ZBTB41 | SID160765225 | 3.06 (active) | 143 | 2.47 | 83.4 |
| ZDHHC11 | SID160749586 | 1.73 | 116 | 1.14 | 96.4 |
| ZDHHC11 | SID160749587 | 1.04 | 103 | 0.465 | 101 |
| ZDHHC11 | SID160749589 | 2.67 | 135 | 3.01 | 68.3 |
| RNF113A | SID160719238 | 0.287 | 87.6 | 0.0372 | 96.9 |
| RNF113A | SID160719239 | 1.25 | 107 | 0.911 | 93.9 |
| RNF113A | SID160719240 | -0.892 | 64.1 | -0.236 | 76.3 |
| AP3S1 | SID160744033 | -0.419 | 73.6 | -0.752 | 100 |
| AP3S1 | SID160744044 | -0.413 | 73.7 | 0.243 | 77.2 |
| AP3S1 | SID160744055 | -0.564 | 70.7 | -0.718 | 95.4 |

Entries listed so far whose target name starts with L or l (3):
| gene | PubChem SID | total luciferase, z-score | total luciferase, % of control | luciferase per cell, z-score | viable cells, % of control |
| --- | --- | --- | --- | --- | --- |
| LOC440895 | SID160767881 | 0.986 | 101 | 0.901 | 89.4 |
| LOC440895 | SID160767882 | -1.08 | 60.5 | -0.84 | 84.3 |
| LOC440895 | SID160767883 | -1.52 | 51.7 | -0.694 | 69.4 |
